The source of these data is patent US20260184795A1.

In the assay the target is BT549. Briefly: flow cytometry, percent of 9H-1-binding BT549 cells (DDR1 low/DDR2 high).

No constants are given. Whether binding was seen depends on the method and setting. Some binding calls cover weakened binding; strength is not graded here. Where a sequence is shown, tags or fusion partners need not be part of it.

B1: 9H-1 (humanized DDR1-9, WT IgG1 Fc) (antibody, V domains shown)
VH: QVQLVESGGRVVQPGRSLRLSCTASGFSLNRYYMLWVRQAPGKGLEWIGTISYGDTTYYASWAKGRFTISRDNSKNTLYLQMNSLRAEDTAVYYCARADTGDNGYLGLQLWGQGTLVTVSS
VL: DIQMTQSPSSVSASVGDRVTITCQASQSIGSVLAWYQQKPGKAPKLLISGVFDLASGVPSRFSGSGSGTDFTLTISSLQPEDFATYYCQYIPYGSSPFGGGTKVEIKR
Consider B1, for which the binding entry is on record as “binds”.
